The text below walks through data of article PMC9186069.

By UniProt entry, the sequences of proteins in these tests, tags left out. Where a name states a change or a piece, a line headed by the entry shows the natural chain unless it says otherwise.
UniProt P00736: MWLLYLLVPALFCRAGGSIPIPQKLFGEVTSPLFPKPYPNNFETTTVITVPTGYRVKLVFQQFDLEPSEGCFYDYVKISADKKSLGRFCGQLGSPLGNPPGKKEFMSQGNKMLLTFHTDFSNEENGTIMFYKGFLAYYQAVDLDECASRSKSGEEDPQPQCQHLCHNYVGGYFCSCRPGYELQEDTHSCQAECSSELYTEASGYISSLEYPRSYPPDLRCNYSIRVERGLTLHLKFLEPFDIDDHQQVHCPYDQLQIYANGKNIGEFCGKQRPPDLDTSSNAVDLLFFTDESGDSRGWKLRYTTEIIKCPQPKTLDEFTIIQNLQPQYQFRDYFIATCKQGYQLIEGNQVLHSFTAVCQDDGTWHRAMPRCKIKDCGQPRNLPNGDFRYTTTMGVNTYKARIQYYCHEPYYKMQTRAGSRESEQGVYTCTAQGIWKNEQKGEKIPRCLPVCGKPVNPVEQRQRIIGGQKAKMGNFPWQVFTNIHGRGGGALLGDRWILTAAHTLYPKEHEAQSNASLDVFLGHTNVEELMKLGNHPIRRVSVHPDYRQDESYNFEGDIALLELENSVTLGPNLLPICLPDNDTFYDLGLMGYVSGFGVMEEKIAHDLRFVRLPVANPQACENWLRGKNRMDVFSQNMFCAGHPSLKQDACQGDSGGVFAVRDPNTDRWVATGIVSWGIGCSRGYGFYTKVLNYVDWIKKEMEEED

The assay deals with full-length B. miyamotoi FbpB (Borrelia miyamotoi strain FR64b). Kind of assay: far-Western, overlay or dot blot; B. burgdorferi B314 whole-cell lysates (2.5 x10^7 cell equivalents) resolved by SDS-PAGE, on PVDF; probed with 20 μg zymogen or active C1r for 1 hour; detected with goat anti-human C1r; only the binder purified.

These are yes or no findings as the source states them, for the method shown. A result given as binding can be weak or reduced; the word gives no strength.

For the substance “active C1r (from UniProt P00736) (enzyme)”, the binding entry is listed as “binds”.
